Measurements published in paper PMC5574038.
Positions count from the first letter of the chain named. Names may count otherwise. No constants are given. Whether binding was seen depends on the method and setting. In cells and extracts the contact can be indirect. Some entries that bind do so weakly or less than the wild type. Sequences can lack the tags named with a protein.

Amino acid sequences for entries named in this document (tags omitted).
UniProt P49674: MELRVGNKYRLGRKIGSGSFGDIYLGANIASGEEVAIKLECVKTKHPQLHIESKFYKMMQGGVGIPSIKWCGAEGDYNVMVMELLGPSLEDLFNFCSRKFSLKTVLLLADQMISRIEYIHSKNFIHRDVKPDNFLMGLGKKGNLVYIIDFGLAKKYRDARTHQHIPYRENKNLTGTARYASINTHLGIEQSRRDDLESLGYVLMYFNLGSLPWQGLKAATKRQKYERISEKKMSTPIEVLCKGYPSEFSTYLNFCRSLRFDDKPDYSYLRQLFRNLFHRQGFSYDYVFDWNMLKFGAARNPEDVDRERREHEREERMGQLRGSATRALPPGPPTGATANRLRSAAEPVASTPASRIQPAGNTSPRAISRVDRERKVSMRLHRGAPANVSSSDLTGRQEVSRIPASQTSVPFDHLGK
UniProt O15169: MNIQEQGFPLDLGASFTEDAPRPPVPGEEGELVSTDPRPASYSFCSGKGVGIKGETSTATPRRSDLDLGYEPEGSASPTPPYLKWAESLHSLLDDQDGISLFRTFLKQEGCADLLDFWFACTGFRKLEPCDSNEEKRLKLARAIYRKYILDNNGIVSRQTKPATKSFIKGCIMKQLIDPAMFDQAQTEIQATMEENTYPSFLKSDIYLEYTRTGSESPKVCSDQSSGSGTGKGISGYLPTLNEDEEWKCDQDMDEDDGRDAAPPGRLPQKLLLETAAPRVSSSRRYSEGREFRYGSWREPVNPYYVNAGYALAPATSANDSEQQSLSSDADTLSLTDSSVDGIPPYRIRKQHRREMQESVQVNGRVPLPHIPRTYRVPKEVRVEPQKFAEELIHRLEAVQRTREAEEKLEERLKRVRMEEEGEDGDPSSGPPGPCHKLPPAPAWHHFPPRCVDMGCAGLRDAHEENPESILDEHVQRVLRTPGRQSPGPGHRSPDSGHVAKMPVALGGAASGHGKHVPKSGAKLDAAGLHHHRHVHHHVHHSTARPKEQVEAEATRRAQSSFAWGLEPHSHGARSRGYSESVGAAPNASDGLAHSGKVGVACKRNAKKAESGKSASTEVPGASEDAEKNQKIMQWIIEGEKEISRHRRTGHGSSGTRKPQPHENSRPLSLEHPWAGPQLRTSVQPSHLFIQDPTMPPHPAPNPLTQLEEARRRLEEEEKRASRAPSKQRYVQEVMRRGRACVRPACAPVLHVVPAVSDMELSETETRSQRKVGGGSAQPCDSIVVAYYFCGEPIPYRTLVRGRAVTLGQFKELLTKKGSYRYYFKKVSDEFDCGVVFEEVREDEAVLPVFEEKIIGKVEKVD

Columns and labels:
[1] = molecular target: CK1ε (endogenous) (human (endogenous in HEK293)) (UniProt P49674); test: co-IP; semiendogenous: DVL KO HEK293 cells transfected with DVL1 plasmids, lysate; immunoprecipitation of endogenous axin1 or CK1ε with 1 μg antibody and protein G-Sepharose, overnight, 6 washes; cells with control or Wnt3a treatment; unspecific IgG as negative control
[2] = molecular target: axin1 (endogenous) (human (endogenous in HEK293)) (UniProt O15169); test: as above

B1: full-length (FL) DVL1 (pcDNA3-Flag-mDVL1) (protein, UniProt P51141 1-695)
chain: MAETKIIYHMDEEETPYLVKLPVAPERVTLADFKNVLSNRPVHAYKFFFKSMDQDFGVVKEEIFDDNAKLPCFNGRVVSWLVLAEGAHSDAGSQGTDSHTDLPPPLERTGGIGDSRPPSFHPNVASSRDGMDNETGTESMVSHRRERARRRNRDEAARTNGHPRGDRRRDLGLPPDSASTVLSSELESSSFIDSDEEDNTSRLSSSTEQSTSSRLVRKHKCRRRKQRLRQTDRASSFSSITDSTMSLNIITVTLNMERHHFLGISIVGQSNDRGDGGIYIGSIMKGGAVAADGRIEPGDMLLQVNDVNFENMSNDDAVRVLREIVSQTGPISLTVAKCWDPTPRSYFTIPRADPVRPIDPAAWLSHTAALTGALPRYGTSPCSSAITRTSSSSLTSSVPGAPQLEEAPLTVKSDMSAIVRVMQLPDSGLEIRDRMWLKITIANAVIGADVVDWLYTHVEGFKERREARKYASSMLKHGFLRHTVNKITFSEQCYYVFGDLCSNLASLNLNSGSSGASDQDTLAPLPHPSVPWPLGQGYPYQYPGPPPCFPPAYQDPGFSCGSGSAGSQQSEGSKSSGSTRSSHRTPGREERRATGAGGSGSESDHTVPSGSGSTGWWERPVSQLSRGSSPRSQASAVAPGLPPLHPLTKAYAVVGGPPGGPPVRELAAVPPELTGSRQSFQKAMGNPCEFFVDIM
[1]
  binding: binds
[2]
  binding: binds

B2: DVL1(1–502) (pcDNA3-Flag-mDVL1 aa 1 to 502) (domain or fragment, UniProt P51141 1-502)
chain: MAETKIIYHMDEEETPYLVKLPVAPERVTLADFKNVLSNRPVHAYKFFFKSMDQDFGVVKEEIFDDNAKLPCFNGRVVSWLVLAEGAHSDAGSQGTDSHTDLPPPLERTGGIGDSRPPSFHPNVASSRDGMDNETGTESMVSHRRERARRRNRDEAARTNGHPRGDRRRDLGLPPDSASTVLSSELESSSFIDSDEEDNTSRLSSSTEQSTSSRLVRKHKCRRRKQRLRQTDRASSFSSITDSTMSLNIITVTLNMERHHFLGISIVGQSNDRGDGGIYIGSIMKGGAVAADGRIEPGDMLLQVNDVNFENMSNDDAVRVLREIVSQTGPISLTVAKCWDPTPRSYFTIPRADPVRPIDPAAWLSHTAALTGALPRYGTSPCSSAITRTSSSSLTSSVPGAPQLEEAPLTVKSDMSAIVRVMQLPDSGLEIRDRMWLKITIANAVIGADVVDWLYTHVEGFKERREARKYASSMLKHGFLRHTVNKITFSEQCYYVFGDLCS
[1]
  binding: binds
[2]
  binding: binds

B3: DVL1(1–502) K438M mutant (domain or fragment, UniProt P51141 1-502)
chain: B2 chain with K438M
[1]
  binding: binds
[2]
  binding: binds

B4: DVL1(1–502) ΔLPDSG mutant (domain or fragment, UniProt P51141)
chain: MAETKIIYHMDEEETPYLVKLPVAPERVTLADFKNVLSNRPVHAYKFFFKSMDQDFGVVKEEIFDDNAKLPCFNGRVVSWLVLAEGAHSDAGSQGTDSHTDLPPPLERTGGIGDSRPPSFHPNVASSRDGMDNETGTESMVSHRRERARRRNRDEAARTNGHPRGDRRRDLGLPPDSASTVLSSELESSSFIDSDEEDNTSRLSSSTEQSTSSRLVRKHKCRRRKQRLRQTDRASSFSSITDSTMSLNIITVTLNMERHHFLGISIVGQSNDRGDGGIYIGSIMKGGAVAADGRIEPGDMLLQVNDVNFENMSNDDAVRVLREIVSQTGPISLTVAKCWDPTPRSYFTIPRADPVRPIDPAAWLSHTAALTGALPRYGTSPCSSAITRTSSSSLTSSVPGAPQLEEAPLTVKSDMSAIVRVMQLEIRDRMWLKITIANAVIGADVVDWLYTHVEGFKERREARKYASSMLKHGFLRHTVNKITFSEQCYYVFGDLCS
[1]
  binding: binds weakly
[2]
  binding: binds weakly
